# Test results published in article PMC12172420.
# T1: Flag-MIDN (midnolin) (UniProt Q504T8)
# T1 sequence: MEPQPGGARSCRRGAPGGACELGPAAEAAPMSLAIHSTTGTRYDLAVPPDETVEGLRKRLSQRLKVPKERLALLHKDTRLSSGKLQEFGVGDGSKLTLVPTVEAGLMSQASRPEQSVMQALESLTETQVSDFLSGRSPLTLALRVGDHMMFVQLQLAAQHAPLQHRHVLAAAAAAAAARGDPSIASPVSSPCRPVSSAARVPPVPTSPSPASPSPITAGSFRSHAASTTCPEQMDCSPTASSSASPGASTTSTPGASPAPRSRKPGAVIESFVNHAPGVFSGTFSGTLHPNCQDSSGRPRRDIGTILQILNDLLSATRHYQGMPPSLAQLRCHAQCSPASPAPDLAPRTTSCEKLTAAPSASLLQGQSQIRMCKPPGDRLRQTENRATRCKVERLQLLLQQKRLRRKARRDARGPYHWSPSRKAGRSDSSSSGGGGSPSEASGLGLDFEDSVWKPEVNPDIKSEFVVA
# B1: MYC-MARCH8 (E3 ubiquitin ligase MARCH8) (enzyme, UniProt Q5T0T0 1-291)
# chain: MSMPLHQISAIPSQDAISARVYRSKTKEKEREEQNEKTLGHFMSHSSNISKAGSPPSASAPAPVSSFSRTSITPSSQDICRICHCEGDDESPLITPCHCTGSLHFVHQACLQQWIKSSDTRCCELCKYEFIMETKLKPLRKWEKLQMTSSERRKIMCSVTFHVIAITCVVWSLYVLIDRTAEEIKQGQATGILEWPFWTKLVVVAIGFTGGLLFMYVQCKVYVQLWKRLKAYNRVIYVQNCPETSKKNIFEKSPLTEPNFENKHGYGICHSDTNSSCCTEPEDTGAEIIHV
# B2: MARCH8 (full length, recombinant from pCold TF) (enzyme, UniProt Q5T0T0 1-291)
# chain: B1 chain
# B3: MIDN (full-length midnolin, recombinant from E. coli) (protein, UniProt Q504T8 1-468)
# chain: T1 sequence
# B4: CALCOCO2/NDP52 (calcium binding and coiled-coil domain 2) (protein, UniProt Q13137 1-446)
# chain: MEETIKDPPTSAVLLDHCHFSQVIFNSVEKFYIPGGDVTCHYTFTQHFIPRRKDWIGIFRVGWKTTREYYTFMWVTLPIDLNNKSAKQQEVQFKAYYLPKDDEYYQFCYVDEDGVVRGASIPFQFRPENEEDILVVTTQGEVEEIEQHNKELCKENQELKDSCISLQKQNSDMQAELQKKQEELETLQSINKKLELKVKEQKDYWETELLQLKEQNQKMSSENEKMGIRVDQLQAQLSTQEKEMEKLVQGDQDKTEQLEQLKKENDHLFLSLTEQRKDQKKLEQTVEQMKQNETTAMKKQQELMDENFDLSKRLSENEIICNALQRQKERLEGENDLLKRENSRLLSYMGLDFNSLPYQVPTSDEGGARQNPGLAYGNPYSGIQESSSPSPLSIKKCPICKADDICDHTLEQQQMQPLCFNCPICDKIFPATEKQIFEDHVFCHSL
# Tests used:
# [1] = molecular target: T1, Flag-MIDN (midnolin); test: co-IP; HEK-293T cells co-transfected for 24 h, lysed in NP40 Cell Lysis Buffer; anti-Flag-antibody-bound Dynabeads Protein G, 30 min at room temperature; washed four times with 0.02% PBST; immunoblot
# [2] = molecular target: Flag-Catch (Catch domain of midnolin); test: as above
# [3] = molecular target: GST-Catch (Catch domain of midnolin in pCold GST); test: pull-down; GST pulldown: recombinant bait and prey proteins from E. coli BL21 (DE3), purified, incubated with glutathione agarose resin (GST Protein Interaction Pull-Down Kit); eluted with glutathione; immunoblot; both purified
# [4] = molecular target: GST-E (GST-fused PEDV E) (porcine epidemic diarrhea virus (PEDV)); test: as above
molecule,measurement,setting,value
HA-E (PEDV envelope protein) (porcine epidemic diarrhea virus (PEDV)),binding,[1],binds
B1,binding,[2],binds
B2,binding,[3],binds
B3,binding,[4],binds
B4,binding,[2],no binding

# Results are given in words; binding and its absence hold for the method and conditions named. Binding calls can cover weak binding; strength is not graded here. For some assays here: Binding seen in cells or lysates may run through a third protein. For some assays here: Where a sequence is shown, tags or fusion partners need not be part of it.
